Some entries share one result that the patent states for a list of compounds. At least one compound was matched to its structure with a doubt left.
System: human monocytes
Experiment: Cytokine production by E. coli LPS-stimulated monocytes (ELISA)
Assay type: cell-based
Details: inhibitor pre-incubation 1 h, 1 μg/ml E. coli LPS 20 h; vs LPS alone
Description: FIG. 2 The ability of the PI3K pathway to differentially modulate the levels of pro- and anti-inflammatory cytokines is mediated by inhibition of GSK-3. Human monocytes were pre-incubated with medium only, 10 μM SB216763, 10 mM LiCl, 200 nM Azakenpaullone, BIO (50 nM), 1 μM Akt-i, or 20 μM LY294002 for 1 h and then stimulated with 1 μg/ml of E. coli LPS for 20 h. Cell-free supernatants were collected and assessed for (A, C) IL-10, (B, D) IL-12 p40, (E) TNF-α, or (F) IL-6 production by ELISA. * and *** indicates significant differences (P<0.05 and P<0.001, respectively) compared to E. coli LPS stimulated cultures. Results represent the mean±SD of 5 separate experiments. […]
Human monocytes were pre-treated with medium only or 10 μM of SB216763 and then stimulated for the indicated time points with 1 μg/ml of E. coli LPS. The ability of E. coli LPS in the presence or absence of SB216763 to mediate the degradation and re-synthesis of (A) IκB-α and the phosphorylation of (B) NF-κB p65 (ser 276 or ser 536) were assessed by Western blot. […] The interaction of CBP with (F) NF-κB p65 and (G) CREB after treatment of cells with SB216763 (10 μM) were assessed by immunoprecipitation of CBP and probed for (F) NF-κB or (G) CREB levels by immunoblot. […]

## [Cl-].[Li+] [LiCl, Lithium chloride]
  reduction in IL-12 p40 levels: > 80%

— US8048454B2, “Methods and compositions related to regulation of cytokine production by glycogen synthase kinase 3 (GSK-3)” (priority 2004, dated 2011)
